Source: publication PMC5640855, “ZIC2 Is Essential for Maintenance of Latency and Is a Target of an Immediate Early Protein during Kaposi's Sarcoma-Associated Herpesvirus Lytic Reactivation” (Journal of Virology, 2017)
These are yes or no findings as the source states them, for the method shown. For some assays here: In cells and extracts the contact can be indirect. Some entries that bind do so weakly or less than the wild type.

Sequences of proteins named here, by UniProt entry; tags and fusion partners are left off.
UniProt Q15910: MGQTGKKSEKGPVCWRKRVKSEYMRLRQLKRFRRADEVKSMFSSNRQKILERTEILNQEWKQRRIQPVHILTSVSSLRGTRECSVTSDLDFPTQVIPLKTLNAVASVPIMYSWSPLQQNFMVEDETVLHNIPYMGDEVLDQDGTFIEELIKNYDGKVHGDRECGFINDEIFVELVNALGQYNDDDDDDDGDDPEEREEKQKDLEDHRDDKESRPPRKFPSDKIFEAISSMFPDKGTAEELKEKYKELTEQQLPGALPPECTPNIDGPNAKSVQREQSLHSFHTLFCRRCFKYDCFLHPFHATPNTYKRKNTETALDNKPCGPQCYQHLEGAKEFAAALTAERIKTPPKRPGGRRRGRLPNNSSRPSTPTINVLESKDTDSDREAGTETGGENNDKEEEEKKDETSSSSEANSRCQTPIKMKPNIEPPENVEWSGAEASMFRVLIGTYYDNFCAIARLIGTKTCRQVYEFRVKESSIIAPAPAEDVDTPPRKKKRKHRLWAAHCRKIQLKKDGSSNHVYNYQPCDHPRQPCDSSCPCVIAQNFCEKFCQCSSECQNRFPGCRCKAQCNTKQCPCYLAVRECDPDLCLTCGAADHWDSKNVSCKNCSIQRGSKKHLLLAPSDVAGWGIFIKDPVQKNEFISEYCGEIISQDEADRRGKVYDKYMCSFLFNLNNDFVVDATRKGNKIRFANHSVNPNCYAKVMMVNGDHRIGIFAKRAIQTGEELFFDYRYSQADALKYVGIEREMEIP
UniProt Q15022: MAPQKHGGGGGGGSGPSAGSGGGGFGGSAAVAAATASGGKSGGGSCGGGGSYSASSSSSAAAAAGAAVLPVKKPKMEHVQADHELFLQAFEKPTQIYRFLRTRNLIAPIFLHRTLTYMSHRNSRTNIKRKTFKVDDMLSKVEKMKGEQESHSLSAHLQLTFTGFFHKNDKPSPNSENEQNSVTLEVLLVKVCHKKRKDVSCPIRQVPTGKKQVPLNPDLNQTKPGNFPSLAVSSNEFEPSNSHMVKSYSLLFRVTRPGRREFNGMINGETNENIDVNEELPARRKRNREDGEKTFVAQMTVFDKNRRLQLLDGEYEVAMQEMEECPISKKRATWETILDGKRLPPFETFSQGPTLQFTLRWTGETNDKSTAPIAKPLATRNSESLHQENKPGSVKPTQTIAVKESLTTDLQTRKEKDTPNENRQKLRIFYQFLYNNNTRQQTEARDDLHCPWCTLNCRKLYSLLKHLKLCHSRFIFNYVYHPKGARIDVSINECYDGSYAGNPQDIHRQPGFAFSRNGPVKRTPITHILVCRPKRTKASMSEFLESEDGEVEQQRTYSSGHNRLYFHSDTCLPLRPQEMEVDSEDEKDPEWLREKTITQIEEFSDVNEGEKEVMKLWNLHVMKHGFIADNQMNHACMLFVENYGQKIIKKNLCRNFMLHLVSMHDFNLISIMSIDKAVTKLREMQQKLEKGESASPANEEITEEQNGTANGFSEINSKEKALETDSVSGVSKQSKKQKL
UniProt O95409: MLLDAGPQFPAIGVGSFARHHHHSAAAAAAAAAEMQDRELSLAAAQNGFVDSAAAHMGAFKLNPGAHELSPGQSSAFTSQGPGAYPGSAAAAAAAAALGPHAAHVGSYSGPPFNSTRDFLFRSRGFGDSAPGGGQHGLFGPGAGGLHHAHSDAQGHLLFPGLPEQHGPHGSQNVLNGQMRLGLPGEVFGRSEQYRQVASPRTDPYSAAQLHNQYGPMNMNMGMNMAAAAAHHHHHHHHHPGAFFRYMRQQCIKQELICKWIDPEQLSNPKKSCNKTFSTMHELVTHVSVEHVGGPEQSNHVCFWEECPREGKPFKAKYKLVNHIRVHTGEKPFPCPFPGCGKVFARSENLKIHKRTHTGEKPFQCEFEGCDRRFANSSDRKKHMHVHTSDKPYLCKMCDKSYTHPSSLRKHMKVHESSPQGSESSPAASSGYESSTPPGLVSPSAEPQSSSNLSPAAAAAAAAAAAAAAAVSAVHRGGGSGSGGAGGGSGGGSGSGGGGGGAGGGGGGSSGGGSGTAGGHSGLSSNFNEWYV
UniProt F5HCV3: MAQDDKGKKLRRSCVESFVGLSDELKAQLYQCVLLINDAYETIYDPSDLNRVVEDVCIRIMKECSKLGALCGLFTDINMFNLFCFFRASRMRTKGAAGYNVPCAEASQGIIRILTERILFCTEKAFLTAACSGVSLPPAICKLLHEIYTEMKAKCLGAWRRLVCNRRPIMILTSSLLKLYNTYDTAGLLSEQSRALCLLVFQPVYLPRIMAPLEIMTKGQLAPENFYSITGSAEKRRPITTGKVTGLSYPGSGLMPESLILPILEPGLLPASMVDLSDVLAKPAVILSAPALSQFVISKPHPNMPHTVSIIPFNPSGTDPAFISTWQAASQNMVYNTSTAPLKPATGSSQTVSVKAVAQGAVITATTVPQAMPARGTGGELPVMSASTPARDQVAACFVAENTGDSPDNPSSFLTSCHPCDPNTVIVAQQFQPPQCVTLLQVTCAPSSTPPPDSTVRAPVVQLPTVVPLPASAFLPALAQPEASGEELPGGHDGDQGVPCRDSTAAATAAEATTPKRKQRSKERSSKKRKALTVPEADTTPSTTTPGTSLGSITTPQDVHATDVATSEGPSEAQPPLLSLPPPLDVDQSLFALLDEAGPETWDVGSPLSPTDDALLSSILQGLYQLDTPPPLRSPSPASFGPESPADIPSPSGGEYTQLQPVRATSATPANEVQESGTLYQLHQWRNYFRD

Tests used:
[1] = target: enhancer of zeste homolog 2 (EZH2), endogenous in BCBL-1 cells (human (endogenous in BCBL-1)) (UniProt Q15910); experiment: co-IP; endogenous proteins in BCBL-1 lysate; ZIC2 IP followed by EZH2 and SUZ12 blots, and EZH2 and SUZ12 IP followed by ZIC2 blot; control IgG; IP lysis buffer, 4°C
[2] = target: suppressor of zeste 12 homolog (SUZ12), endogenous in BCBL-1 cells (human (endogenous in BCBL-1)) (UniProt Q15022); experiment: as above
[3] = target: ZIC2, endogenous in BCBL-1 cells (human (endogenous in BCBL-1)) (UniProt O95409); experiment: as above
[4] = target: HA-tagged ZIC2 (zinc finger protein of the cerebellum 2) (UniProt O95409); experiment: co-IP
FLAG-tagged ZIC2 = FLAG-tagged ZIC2 (UniProt O95409); experiment: co-IP; purified FLAG-ZIC2 incubated with purified FLAG-PRC2 complex in binding buffer (20 mM HEPES pH 7.9, 150 mM NaCl, 1 mM EDTA, 4 mM MgCl2, 0.02% NP-40, 10% glycerol, 1 mg/ml BSA) for 90 min at 4°C; precipitated with anti-ZIC2 antibody or control IgG; blots for EZH2, SUZ12 and EED; both purified

ZIC2, endogenous in BCBL-1 cells (from UniProt O95409 1-532)
binding [1]: binds
binding [2]: binds

suppressor of zeste 12 homolog (SUZ12), endogenous in BCBL-1 cells (from UniProt Q15022 1-739)
binding [3]: binds

FLAG-K-Rta (KSHV replication and transcription activator) (from UniProt F5HCV3 1-691)
binding [4]: binds

PRC2 complex (FLAG-EZH2, FLAG-SUZ12, and FLAG-EED) (from UniProt Q15910 1-746; Q15022 1-739; O75530 1-441)
binding (FLAG-tagged ZIC2): binds
